Assay [1] has as its target GST-Tvactin (T. vaginalis). As to the kind of experiment: pull-down.
The target in assay [2] is HA-TvFACPα (T. vaginalis) (UniProt A2FE30). As to the kind of experiment: co-IP.

Results are given in words; binding and its absence hold for the method and conditions named. Binding can be weak; no strength is given. For some assays here: In cells and extracts the contact can be indirect.

In the case of His-TvFACPα (from UniProt A2FE30), the binding result in assay [1] was “binds”.

As to “α-actin, endogenous (T. vaginalis) (from UniProt A0A8U0WPZ0)”, in assay [2], the binding result was “binds”.

Source of the values: doi:10.1101/2022.06.09.495492.
